PubChem BioAssay AID504793, Drosophila RNAi Screening Center, 2011
Test: 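Genes required for cells to halt at G2/M after double-strand DNA breaks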 (primary screen). System: Drosophila S2R+ cells. Knock-down reagent: long dsRNA against Drosophila genes, about 0.25 µg dsRNA per well. Duration: 4 days of dsRNA, then 4 hours of drug before read-out. Conditions: doxorubicin 0.5 µM for 4 hours to cause double-strand breaks, in cells also given a low, harmless dose of dsRNA against nbs to sensitise the assay. Detection: 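Mitotic index as the number of phospho-histone H3-positive cells in each well following doxorubicin, given as raw counts without normalisation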. Direction: mitotic cells: higher = more cells in mitosis, weaker G2 arrest. Rule for the call: 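Genes are called active only when high mitotic counts were reproduced with independent dsRNAs and mitosis was checked for delay without damage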. Calls: active = confirmed in follow-up tests; inactive = not confirmed.
In all, the deposit lists about 23,000 reagents; below is a random part of those with a known target gene and a result. Of all reagents, 62 (0.27%) got an active call. 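Calls come from follow-up tests whose scores are not deposited, so confirmed genes may have low counts here; counts are not normalised per plate.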 Raw values are not corrected between plates. A plus sign joins genes that one reagent is predicted to hit. Reagent sequences are not shown.

What did the screen give for CG44837 [DRSC10133]?
Call: inactive

What is on record for CG44837 [DRSC10558]?
mitotic cells, replicate 1: 4; Call: inactive

What is on record for CG44837 [DRSC25062]?
mitotic cells, replicate 1: 8; Call: inactive

What did the screen give for yellow-e [DRSC12966]?
mitotic cells, replicate 1: 5; Call: inactive

With yellow-e [DRSC16563], what does the deposit list?
mitotic cells, replicate 1: 8; Call: inactive

What did the screen give for CG30291 [DRSC03842]?
mitotic cells, replicate 1: 4; Call: inactive

With Eig71Ef [DRSC11153], what was measured?
mitotic cells, replicate 1: 1; Call: inactive

With tilB [DRSC20634], how do the results read?
mitotic cells, replicate 1: 8; Call: inactive

For CG31815 [DRSC01548], what was measured?
mitotic cells, replicate 1: 8; Call: inactive

With CG31815 [DRSC29263], how do the results read?
mitotic cells, replicate 1: 5; Call: inactive

For CG10337 [DRSC02038], what does the deposit list?
mitotic cells, replicate 1: 5; Call: inactive

How did the screen score RpS17 [DRSC11271]?
Call: inactive

For RpS17 [DRSC29519], how do the results read?
mitotic cells, replicate 1: 2; Call: inactive

Which result is listed for CG17977 [DRSC06700]?
mitotic cells, replicate 1: 7; Call: inactive

For SmydA-1 [DRSC07200], how do the results read?
mitotic cells, replicate 1: 9; Call: inactive

For CG13196 [DRSC06321], how do the results read?
mitotic cells, replicate 1: 5; Call: inactive

With CG3588 [DRSC18473], what does the deposit list?
mitotic cells, replicate 1: 8; Call: inactive

With CG3588 [DRSC24598], what does the deposit list?
mitotic cells, replicate 1: 10; Call: inactive

With Rbbp5 [DRSC11778], how do the results read?
mitotic cells, replicate 1: 2; Call: inactive

For Gr58b [DRSC04140], what does the deposit list?
mitotic cells, replicate 1: 4; Call: inactive

What did the screen give for CG6985 [DRSC16164]?
mitotic cells, replicate 1: 5; Call: inactive

With CG6985 [DRSC24923], what was measured?
mitotic cells, replicate 1: 4; Call: inactive

For Josd [DRSC18323], how do the results read?
mitotic cells, replicate 1: 11; Call: inactive

With Ufm1 + mute [DRSC26798], what was measured?
mitotic cells, replicate 1: 10; Call: inactive

For CG1806 [DRSC19787], what was measured?
mitotic cells, replicate 1: 7; Call: inactive

For CG10738 [DRSC09792], what does the deposit list?
mitotic cells, replicate 1: 4; Call: inactive

For CG10738 [DRSC24408], what does the deposit list?
mitotic cells, replicate 1: 8; Call: inactive

With CG10184 [DRSC14204], what was measured?
mitotic cells, replicate 1: 8; Call: inactive

For Or22a [DRSC00764], how do the results read?
mitotic cells, replicate 1: 22; Call: inactive

With Or22a [DRSC26009], how do the results read?
mitotic cells, replicate 1: 2; Call: inactive

For CG33458 [DRSC22891], what was measured?
mitotic cells, replicate 1: 7; Call: inactive

For Shark [DRSC07680], what was measured?
mitotic cells, replicate 1: 3; Call: inactive

What is on record for Shark [DRSC28527]?
mitotic cells, replicate 1: 2; Call: inactive

Which result is listed for resilin [DRSC05627]?
mitotic cells, replicate 1: 8; Call: inactive

With resilin [DRSC06595], what was measured?
mitotic cells, replicate 1: 4; Call: inactive

Copied from the list.
Entry of CG10184 [DRSC14204] under “Call”: inactive
For “mitotic cells, replicate 1”, CG13196 [DRSC06321] shows 5
For “mitotic cells, replicate 1”, Or22a [DRSC00764] has 22
CG6985 [DRSC24923], mitotic cells, replicate 1: 4
For “Call”, tilB [DRSC20634] reads inactive
